Test results from PubChem BioAssay AID493014 (National Center for Advancing Translational Sciences (NCATS), 2011).
Some of the results follow. Further columns of the screen follow, without active or inactive calls. The list favours compounds with an active or inconclusive main result. The note in brackets gives the kind of curve behind each potency; many fits are weak.

Assay: qHTS Assay to Find Inhibitors of Chronic Active B-Cell Receptor Signaling
Conditions: ABC-DLBCL IkBa-CBG/CBR reporter, luminescence ratio (green luciferase fused to IkBa over red control in TMD8 lymphoma cells), 4 h
How it was run: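 Doxycycline induced both beetle luciferases in TMD8 lymphoma cells; IKK-driven degradation limits the IkappaBalpha-fused green signal, while red luminescence normalises for cell number and nonspecific effects. Compounds tested up to 46 uM, 4 hrs.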

[1] = measured here: CBR red luminescence, cell number
[2] = measured here: IkBa-CBG green luminescence

SMILES	AC50 [1]	AC50 [2]
CC(=O)Nc1cccc(-n2c(=O)n(Cc3ccccc3)c(=O)c3[nH]cnc32)c1	22.4 µM [rising, partial curve]	11.2 µM [falling, partial curve, poor fit]
Cc1cc(C)cc(NC(=S)N=Nc2c(O)n(C)c3ccc(S(=O)(=O)N4CCOCC4)cc23)c1	18.4 µM [rising, single point]	
CC(C)(C)OC(=O)N1CCC(c2cc(-c3cccs3)n[nH]2)CC1	35.5 µM [falling, single point]	
COc1ccc(S(=O)(=O)N2CCOCC2)cc1NC(=O)COc1ncnc2ccccc12	29.1 µM [rising, single point]	
O=C(CN(c1cccc(C(F)(F)F)c1)S(=O)(=O)c1ccccc1)Nc1cccc(Cl)c1	7.08 µM [falling, full curve, poor fit]	6.31 µM [rising, partial curve, poor fit]
O=C(O)C1CC=CCC1C(=O)Nc1ccc2c(c1)CCC2 (stereo unspecified)	7.08 µM [rising, partial curve]	
CCN(CC(=O)Nc1c(F)cccc1F)C(=O)/C=C/c1ccc(Br)s1	1.3 µM [falling, full curve]	
CCOc1ccc2nc(NC(=O)c3ccccn3)sc2c1		11.2 µM [falling, partial curve]
CC(NC(=O)COc1ncnc2cc([N+](=O)[O-])ccc12)c1ccccc1 (stereo unspecified)	16.4 µM [falling, single point]	
O=C(O)c1ccc(N=Nc2c(O)[nH]c3ccccc23)cc1	0.316 µM [falling, full curve, poor fit]	
O=C(c1cc(S(=O)(=O)N2CCOCC2)ccc1F)N1CCCc2ccccc21	23.1 µM [falling, partial curve, poor fit]	
Clc1ccccc1-c1nnc(CNC2CC2)o1	2.82 µM [falling, partial curve, poor fit]	
COC(=O)c1ccc(NC(=O)CN(C)S(=O)(=O)c2ccc(OC)c(C)c2)cc1	6.51 µM [falling, partial curve, poor fit]	
COc1ccc(N2CCN(CC(O)c3c[nH]c4ccc(OC)cc34)CC2C)cc1 (stereo unspecified)	35.5 µM [falling, single point]	20 µM [rising, partial curve, poor fit]
OCC(O)/C=N/Nc1nc2ccccc2s1 (stereo unspecified)	35.5 µM [falling, single point]	
Cc1ccc2nc(SCC(=O)Nc3ccc4c(c3)OCCO4)[nH]c2c1	0.103 µM [falling, full curve, poor fit]	
CCOc1cc(/C=C2\CCn3c2nc2cc(Cl)ccc2c3=O)ccc1O	3.16 µM [falling, full curve]	
CCCC(=O)Nc1ccc(C2C(=O)c3ccccc3C2=O)cc1	35.5 µM [rising, single point]	
CCNC(=O)c1ccc(NS(=O)(=O)c2ccc3[nH]c(=O)[nH]c3c2)cc1	11.2 µM [falling, partial curve, poor fit]	
Cc1cc(C)c(O)c(-c2cc(C(=O)Nc3c(C)n(C)n(-c4ccccc4)c3=O)[nH]n2)c1	8.91 µM [falling, partial curve, poor fit]	
CC(C)N=c1scc(-c2ccco2)n1/N=C/c1ccc(O)c(O)c1	35.5 µM [falling, single point]	

4 structures out of the list, sorted by length of the SMILES, ascending.
SMILES	AC50 [1]	AC50 [2]
O=C(O)c1ccc(N=Nc2c(O)[nH]c3ccccc23)cc1	0.316 µM [falling, full curve, poor fit]	
O=C(c1cc(S(=O)(=O)N2CCOCC2)ccc1F)N1CCCc2ccccc21	23.1 µM [falling, partial curve, poor fit]	
COc1ccc(S(=O)(=O)N2CCOCC2)cc1NC(=O)COc1ncnc2ccccc12	29.1 µM [rising, single point]	
Cc1cc(C)c(O)c(-c2cc(C(=O)Nc3c(C)n(C)n(-c4ccccc4)c3=O)[nH]n2)c1	8.91 µM [falling, partial curve, poor fit]	

The list continues:

SMILES	AC50 [1]	AC50 [2]
COc1ccc(-c2nnc(SCC(=O)c3ccc(NC(C)=O)cc3)o2)cc1OC	3.98 µM [rising, partial curve, poor fit]	
Cc1ccc(C2c3c(-c4ccccc4O)n[nH]c3C(=O)N2Cc2ccncc2)cc1 (stereo unspecified)	20.6 µM [falling, single point]	
O=C(CCl)Nc1ccc(N=Nc2ccccc2)cc1	20.6 µM [falling, partial curve]	
CCN(CC)S(=O)(=O)c1ccc(OC)c(NC(=S)Nc2cccc(C)c2)c1	14.6 µM [rising, partial curve, poor fit]	
CCn1c(O)c2ccc(C(=O)N=NC(=O)c3ccccc3)cc2c1O	12.6 µM [falling, partial curve, poor fit]	
COc1cc(-c2cc(=O)c3ccccc3o2)ccc1O	10 µM [falling, partial curve, poor fit]	
Cc1cc(C)cc(N(C(=O)c2csnn2)C(C(=O)NC(C)(C)C)c2cccnc2)c1 (stereo unspecified)	25.1 µM [rising, single point]	
CC[C@@]12C(=O)N(c3cccc(F)c3)C(=O)N1[C@H](c1ccc(Cl)cc1)[C@@H]1C(=O)N(C3CCCCC3)C(=O)[C@@H]12	23.1 µM [falling, single point]	
CC(C)c1ccc(/C=C/C(=O)NC2CCCCC2)cc1	29.1 µM [rising, single point]	
Cc1ccc2cc(/C=N/Nc3nc4ccccc4[nH]3)c(Cl)nc2c1	9.2 µM [falling, partial curve, poor fit]	
CCOc1ccc(C(=O)NCC(=O)NCCCn2nc(C)cc2C)cc1OCC	0.1 µM [rising, full curve, poor fit]	
CC(=O)N1CCc2cc(S(=O)(=O)NCCC(=O)NCCc3ccc(C)cc3)ccc21	29.1 µM [rising, single point]	
Cc1ccc(SCC(=O)N(C)CC(=O)Nc2cccc(F)c2)cc1	3.66 µM [rising, partial curve, poor fit]	
O=C(COC(=O)c1cc(Cl)cc(Cl)c1)NCCN1C(=O)CSC1=O	4.11 µM [rising, full curve, poor fit]	
O=C(OCC(=O)N1CCOCC1)c1ccccc1OCc1ccc(Cl)cc1		8.2 µM [falling, partial curve, poor fit]
CC(C)OC(=O)c1ccc(COC(=O)c2cnccn2)cc1	20 µM [rising, partial curve, poor fit]	
CCOC(=O)NC(=O)COC(=O)CCCSc1nc2ccccc2s1		0.251 µM [rising, full curve, poor fit]
CCCCCCc1c(O)c2ccccc2[nH]c1=O	2.31 µM [rising, partial curve, poor fit]	
Cc1ccccc1NC(=O)C1CC(=O)n2ncnc2N1 (stereo unspecified)	8.91 µM [falling, partial curve, poor fit]	
CC[C@]12c3[nH]c4ccc(Cl)cc4c3CCN1C(=O)[C@@H](CC(=O)NCCc1ccccn1)C[C@@H]2C(=O)N1CCN(C(=O)c2ccco2)CC1	0.00517 µM [falling, full curve, poor fit]	
Oc1ccc2c(ccc3[nH]cnc32)c1	3.55 µM [falling, single point]	

SMILES	AC50 [1]	AC50 [2]
O=C(COC(=O)c1ccco1)Nc1ccccc1[N+](=O)[O-]	15.8 µM [rising, single point]	
Cc1ccccc1-c1cc(C(=O)Nc2sc(C(=O)OC(C)C)c(C)c2C#N)c2ccccc2n1	35.5 µM [falling, single point]	
Cc1ccccc1NC(=O)CC1C(=O)Nc2ccccc2N1CC(=O)N(C)C1CCS(=O)(=O)C1 (stereo unspecified)	6.51 µM [falling, partial curve, poor fit]	
S=c1sc2c(N3CCN(Cc4ccccc4)CC3)ncnc2n1-c1ccccc1	29.1 µM [falling, single point]	
C/C(CCC(C)C)=N\NC(=O)COc1ccccc1-c1ccccc1	3.98 µM [rising, full curve]	5.62 µM [falling, full curve]
O=C(/C=C/c1ccccc1)Nn1cnc2ccccc2c1=O	6.51 µM [falling, partial curve]	
COc1ccccc1-n1cnc2cc(NC(=O)c3ccco3)ccc21	7.31 µM [falling, partial curve, poor fit]	
C=CCOc1cc(OC)c(OC)c(OC)c1	1.58 µM [rising, full curve, poor fit]	
CCN1CCN(C(=O)c2cc3c(OC)c(OC)c(OC)cc3[nH]2)CC1	3.16 µM [rising, partial curve]	
Cc1ccc(C(=O)Nc2ccccc2OC(F)F)cc1	29.1 µM [rising, single point]	
COc1ccccc1OCc1nc(C#N)c(N2CCC(C(N)=O)CC2)o1	6.51 µM [rising, single point]	
COC(=O)c1cnn(-c2ccccc2)c1/C=N/NC(=S)Nc1ccccc1	3.98 µM [falling, full curve, poor fit]	
CCc1ccc(NC(=O)N(CCCN2CCOCC2)Cc2cccs2)cc1	6.51 µM [falling, single point]	
O=C(COC(=O)CCC1CCCCC1)Nc1ccc(OC(F)F)cc1	23.1 µM [rising, single point]	
Cc1cccc(NC(=S)NC(=O)c2ccc(Br)o2)c1C	11.2 µM [rising, single point]	
COc1ccc(NC(=O)C2CCCN(C)C2)cc1OCC(C)C (stereo unspecified)	6.51 µM [rising, full curve, poor fit]	
COc1cc(/C=C2/C(=O)ON=C2c2ccccc2)ccc1O	6.51 µM [rising, partial curve]	20.6 µM [rising, partial curve, poor fit]
CCOc1ccc(C(C)NC(=O)CN2C(=O)NC3(CCCCC3)C2=O)cc1OCC (stereo unspecified)	9.2 µM [rising, partial curve]	
Cc1ccc(OCCC(=O)Nc2ccc(S(=O)(=O)Nc3cc(C)nc(C)n3)cc2)cc1	0.0326 µM [rising, full curve, poor fit]	
